Results are given in words; binding and its absence hold for the method and conditions named. Sequences can lack the tags named with a protein.
Target: T1, Acriflavine resistance protein B (AcrB) (E. coli (endogenous in the expression strain)) (UniProt P31224)
T1 sequence: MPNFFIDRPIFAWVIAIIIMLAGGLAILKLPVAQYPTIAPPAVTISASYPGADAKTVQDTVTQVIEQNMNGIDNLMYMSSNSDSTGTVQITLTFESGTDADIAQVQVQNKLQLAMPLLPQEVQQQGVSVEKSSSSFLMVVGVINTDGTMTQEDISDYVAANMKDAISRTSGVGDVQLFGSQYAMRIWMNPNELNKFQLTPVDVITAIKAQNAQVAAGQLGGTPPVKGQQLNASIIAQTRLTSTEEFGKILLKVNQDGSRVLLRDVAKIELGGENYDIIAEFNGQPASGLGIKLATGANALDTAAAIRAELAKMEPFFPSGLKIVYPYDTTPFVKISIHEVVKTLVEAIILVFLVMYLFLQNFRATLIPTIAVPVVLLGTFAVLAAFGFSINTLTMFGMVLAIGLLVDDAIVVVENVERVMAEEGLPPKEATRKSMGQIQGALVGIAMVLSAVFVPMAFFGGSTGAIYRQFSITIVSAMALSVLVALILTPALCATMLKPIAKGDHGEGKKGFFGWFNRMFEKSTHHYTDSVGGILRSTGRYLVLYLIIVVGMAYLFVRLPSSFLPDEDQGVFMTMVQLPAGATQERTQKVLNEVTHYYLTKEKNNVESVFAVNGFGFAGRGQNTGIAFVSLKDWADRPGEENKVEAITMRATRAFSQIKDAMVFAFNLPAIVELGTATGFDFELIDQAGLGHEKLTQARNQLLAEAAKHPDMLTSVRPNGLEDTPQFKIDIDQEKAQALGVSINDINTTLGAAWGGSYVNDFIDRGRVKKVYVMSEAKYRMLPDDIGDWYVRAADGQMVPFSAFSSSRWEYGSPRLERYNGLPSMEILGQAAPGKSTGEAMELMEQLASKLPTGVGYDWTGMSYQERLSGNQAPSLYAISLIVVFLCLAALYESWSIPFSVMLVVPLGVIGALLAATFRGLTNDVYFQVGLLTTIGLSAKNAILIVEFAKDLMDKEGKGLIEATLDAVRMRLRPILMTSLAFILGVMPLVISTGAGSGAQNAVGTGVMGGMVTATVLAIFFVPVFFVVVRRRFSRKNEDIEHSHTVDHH
Assay: pull-down; second Ni2+ High Trap chelating column in DDM after partial trypsin cleavage of the N-terminal His6 tag; flow-through against the peak eluted with 250 mM imidazole, fractions on SDS-PAGE; both purified

B1: E504Q BmrA mutant, untagged, cleaved by trypsin (starts at Leu12) (domain or fragment, Bacillus subtilis, UniProt O06967 12-589, looked up)
chain: LKPFFALVRRTNPSYGKLAFALALSVVTTLVSLLIPLLTKQLVDGFSMSNLSGTQIGLIALVFFVQAGLSAYATYALNYNGQKIISGLRELLWKKLIKLPVSYFDTNASGETVSRVTNDTMVVKELITTHISGFITGIISVIGSLTILFIMNWKLTLLVLVVVPLAALILVPIGRKMFSISRETQDETARFTGLLNQILPEIRLVKASNAEDVEYGRGKMGISSLFKLGVREAKVQSLVGPLISLVLMAALVAVIGYGGMQVSSGELTAGALVAFILYLFQIIMPMGQITTFFTQLQKSIGATERMIEILAEEEEDTVTGKQIENAHLPIQLDRVSFGYKPDQLILKEVSAVIEAGKVTAIVGPSGGGKTTLFKLLERFYSPTAGTIRLGDEPVDTYSLESWREHIGYVSQESPLMSGTIRENICYGLERDVTDAEIEKAAEMAYALNFIKELPNQFDTEVGERGIMLSGGQRQRIAIARALLRNPSILMLDQATSSLDSQSEKSVQQALEVLMEGRTTIVIAHRLSTVVDADQLLFVEKGEITGRGTHHELMASHGLYRDFAEQQLKMNADLENKAG
notes: BmrA, Bacillus subtilis, E504Q mutant, cut by trypsin between Lys11 and Leu12; The His6 tag is lost together with residues 1-11; also called untagged BmrA; untagged, cleaved, monomer
For B1, the binding was “no binding”.

Source: PMC4269414, “Stubborn Contaminants: Influence of Detergents on the Purity of the Multidrug ABC Transporter BmrA” (PLoS ONE, 2014)
